Test results as given in PMC8599867.
No constants are given. Whether binding was seen depends on the method and setting. In cells and extracts the contact can be indirect. Binding calls can cover weak binding; strength is not graded here.

Amino acid sequences for entries named in this document (tags omitted). A change or cut given only in a name is not applied to a line headed by its entry.
UniProt Q9UBB9: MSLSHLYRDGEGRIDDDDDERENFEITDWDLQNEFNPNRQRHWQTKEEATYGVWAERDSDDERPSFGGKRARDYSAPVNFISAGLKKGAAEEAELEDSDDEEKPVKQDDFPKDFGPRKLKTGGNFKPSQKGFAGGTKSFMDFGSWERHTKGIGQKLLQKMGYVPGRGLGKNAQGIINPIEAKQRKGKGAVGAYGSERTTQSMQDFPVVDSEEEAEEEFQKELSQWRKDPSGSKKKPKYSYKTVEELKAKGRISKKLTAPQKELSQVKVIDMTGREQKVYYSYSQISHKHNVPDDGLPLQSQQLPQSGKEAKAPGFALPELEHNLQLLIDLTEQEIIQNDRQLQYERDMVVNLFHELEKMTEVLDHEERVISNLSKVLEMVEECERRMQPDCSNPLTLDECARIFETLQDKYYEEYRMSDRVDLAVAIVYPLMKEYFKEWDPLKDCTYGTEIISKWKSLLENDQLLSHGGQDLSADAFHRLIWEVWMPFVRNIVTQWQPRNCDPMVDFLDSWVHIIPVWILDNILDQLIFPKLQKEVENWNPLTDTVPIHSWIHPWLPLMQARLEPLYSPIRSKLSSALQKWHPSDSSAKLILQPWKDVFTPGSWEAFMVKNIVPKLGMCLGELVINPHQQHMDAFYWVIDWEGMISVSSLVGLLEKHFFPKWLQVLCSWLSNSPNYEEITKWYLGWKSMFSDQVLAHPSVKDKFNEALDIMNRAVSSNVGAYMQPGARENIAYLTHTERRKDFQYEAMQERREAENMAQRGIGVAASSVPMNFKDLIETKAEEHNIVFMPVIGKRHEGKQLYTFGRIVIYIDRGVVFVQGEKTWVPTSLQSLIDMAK
UniProt P38432: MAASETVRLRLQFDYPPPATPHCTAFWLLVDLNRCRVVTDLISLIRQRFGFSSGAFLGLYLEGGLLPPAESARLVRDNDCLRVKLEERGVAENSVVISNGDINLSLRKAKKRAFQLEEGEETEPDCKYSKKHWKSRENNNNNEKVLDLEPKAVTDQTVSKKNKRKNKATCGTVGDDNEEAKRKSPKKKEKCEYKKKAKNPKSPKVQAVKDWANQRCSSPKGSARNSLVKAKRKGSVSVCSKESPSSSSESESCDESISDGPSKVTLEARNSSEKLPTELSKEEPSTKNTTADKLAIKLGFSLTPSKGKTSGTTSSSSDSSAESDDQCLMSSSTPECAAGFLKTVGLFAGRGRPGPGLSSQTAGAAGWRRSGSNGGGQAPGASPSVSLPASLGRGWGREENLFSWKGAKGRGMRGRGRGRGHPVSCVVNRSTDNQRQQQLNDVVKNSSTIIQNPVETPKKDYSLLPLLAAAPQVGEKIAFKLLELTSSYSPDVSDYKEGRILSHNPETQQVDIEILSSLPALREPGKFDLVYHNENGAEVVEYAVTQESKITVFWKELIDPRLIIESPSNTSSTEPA

Target: TFIP11-FLAG deletion mutant lacking the G-patch domain only (human) (UniProt Q9UBB9)
Assay: co-IP; HeLa cells co-transfected with RFP-coilin and TFIP11-FLAG constructs; IP with anti-FLAG antibodies, western blotting

binding: binds
Substance: RFP-coilin (from UniProt P38432 1-576)
